From patent EP1749519A1, “Dosage form with pH-independent sustained release for active substances with pH-dependent solubility” (Schering Aktiengesellschaft, priority 2005, dated 2007) come the findings set out here.

For data set [1] the following is noted: acidic pH values (pH < 4).

Turning to `C[C@@H]1CN(Cc2ccc(F)cc2)CCN1C(=O)COc1ccc(Cl)cc1NC(N)=O` [Piperazinharnstoff, (2R)-1-((4-chloro-2-(ureido)phenoxy)methyl)carbonyl-2-methyl-4-(4-fluorobenzyl)piperazin], the “Wirkstofffreisetzung im Medium mit pH 1” value is recorded as “geringer als erwartet”. The Löslichkeit result in data set [1] was “höherer Löslichkeit bei sauren pH-Werten”.
